Data: the supplement of paper PMC10849652
The other results are listed elsewhere or left out. Residues, ends and D or L forms follow the SMILES beside them. *: point of attachment. Cbz = O=C(OCc1ccccc1)*

By UniProt entry, the sequences of proteins in these tests, tags left out. Where a name states a change or a piece, a line headed by the entry shows the natural chain unless it says otherwise.
UniProt Q9Y4E5: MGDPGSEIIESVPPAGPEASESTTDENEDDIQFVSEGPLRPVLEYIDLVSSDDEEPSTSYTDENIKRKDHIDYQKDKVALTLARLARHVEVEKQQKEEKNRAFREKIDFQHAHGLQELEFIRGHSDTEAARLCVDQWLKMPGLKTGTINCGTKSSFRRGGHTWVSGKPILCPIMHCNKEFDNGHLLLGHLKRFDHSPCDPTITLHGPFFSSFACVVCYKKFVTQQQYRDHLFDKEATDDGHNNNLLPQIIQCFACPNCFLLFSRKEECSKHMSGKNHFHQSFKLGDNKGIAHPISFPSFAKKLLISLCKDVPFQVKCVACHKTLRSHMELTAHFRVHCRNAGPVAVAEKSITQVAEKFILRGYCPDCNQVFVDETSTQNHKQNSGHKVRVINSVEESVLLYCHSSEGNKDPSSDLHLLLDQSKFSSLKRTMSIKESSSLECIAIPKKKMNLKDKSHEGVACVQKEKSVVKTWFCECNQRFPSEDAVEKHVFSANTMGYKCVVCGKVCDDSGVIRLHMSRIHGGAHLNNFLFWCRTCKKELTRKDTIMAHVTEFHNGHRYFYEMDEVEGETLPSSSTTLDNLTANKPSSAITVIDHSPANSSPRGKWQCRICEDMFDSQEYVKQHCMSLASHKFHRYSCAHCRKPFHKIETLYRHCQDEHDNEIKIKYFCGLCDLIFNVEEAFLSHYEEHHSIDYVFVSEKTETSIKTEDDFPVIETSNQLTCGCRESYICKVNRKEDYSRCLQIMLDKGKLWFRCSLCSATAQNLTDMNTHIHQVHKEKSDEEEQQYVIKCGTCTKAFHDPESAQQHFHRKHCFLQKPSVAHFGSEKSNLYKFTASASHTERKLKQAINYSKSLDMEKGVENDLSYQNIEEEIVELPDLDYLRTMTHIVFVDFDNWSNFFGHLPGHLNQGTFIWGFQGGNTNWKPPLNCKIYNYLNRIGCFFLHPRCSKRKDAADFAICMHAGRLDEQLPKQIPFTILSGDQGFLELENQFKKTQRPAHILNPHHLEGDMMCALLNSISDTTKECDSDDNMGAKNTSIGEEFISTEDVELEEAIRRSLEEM
UniProt Q8NB15: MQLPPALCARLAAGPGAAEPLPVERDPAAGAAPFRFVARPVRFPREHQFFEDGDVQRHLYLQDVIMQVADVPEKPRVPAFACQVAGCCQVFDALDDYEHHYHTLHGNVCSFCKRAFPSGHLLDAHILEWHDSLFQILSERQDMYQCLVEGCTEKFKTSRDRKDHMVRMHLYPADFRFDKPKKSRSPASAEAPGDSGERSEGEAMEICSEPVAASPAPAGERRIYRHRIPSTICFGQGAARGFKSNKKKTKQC

target: ZNF451 (UniProt Q9Y4E5); assay: log2 fold change, soluble protein after heating vs DMSO (PISA); higher = thermal stabilisation; K562 cells, 10 uM, 30 min; active = over 0.2 and 3.5 SD of the protein, either way, in both replicates (recomputed)
Procedure, shortened: (§1)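 K562 cells at 2×10^6 cells/mL were treated with 10 μM compound for 30 min. Aliquots were heated for 3 min across 48°C-58°C, pooled, and extracted in PBS with 0.5% NP-40 at 4°C; soluble protein was the supernatant after 21,000xg for 90 min. Soluble protein was quantified by TMTpro 16plex LC-MS/MS with channel sums equalised, and reported as log2 fold change in thermal stability against DMSO controls, with values from duplicates.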

log2 fold change, inactive:
CCCc1cc(C)[nH]c(=O)c1CNC(=O)c1cc(-c2ccnc(N3CCN(C)CC3)c2)cc2c1cnn2C(C)C 0.142
O=C(O)c1ccc2c(c1)nc(Nc1cccc(Cl)c1)c1ccncc12 [silmitasertib] 0.354
COc1cccc2cc(-c3nc([C@H]4CC[C@H](C(=O)O)CC4)n4ncnc(N)c34)[nH]c12 -0.234
FC(F)(F)c1ccc(/C=C/c2nc(COc3ccc(CCCCn4ccnn4)cc3)co2)cc1 [mubritinib] 0.298
NC1(c2ccc(-c3nc4ccn5c(=O)[nH]nc5c4cc3-c3ccccc3)cc2)CCC1 0.389
COc1cc(Nc2ncc3c(n2)-c2ccc(Cl)cc2C(c2c(F)cccc2OC)=NC3)ccc1C(=O)O [alisertib] -0.143

target: ZNF511 isoform 1 (UniProt Q8NB15); assay: as above
Procedure, shortened: as §1

log2 fold change, inactive:
C=CC(=O)N1CCC[C@@H](n2nc(-c3ccc(Oc4ccccc4)cc3)c3c(N)ncnc32)C1 [ibrutinib] 0.047
COc1cc(C(=O)O)ccc1NC(=O)[C@@H]1N[C@@H](CC(C)(C)C)[C@](C#N)(c2ccc(Cl)cc2F)[C@H]1c1cccc(Cl)c1F [idasanutlin] 0.128
CCCc1cc(C)[nH]c(=O)c1CNC(=O)c1cc(-c2ccnc(N3CCN(C)CC3)c2)cc2c1cnn2C(C)C 0.08
CC[C@H](C)n1cc(C)c2c(C(=O)NCc3c(C)cc(C)[nH]c3=O)cc(-c3ccc(N4CCNCC4)nc3)cc21 -0.058
Cn1cc(-c2ccc3nnc(C(F)(F)c4ccc5ncccc5c4)n3n2)cn1 -0.132
Cn1cc(-c2ccc3c(c2)CCN3C(=O)Cc2cccc(C(F)(F)F)c2)c2c(N)ncnc21 0.01
O=C1c2ccccc2-c2n[nH]c3cccc1c23 0.041
Oc1cc(-c2nc(-c3ccccc3)[nH]c2-c2ccncc2)ccc1Cl 0.018
Cc1ccc(NC(=O)c2cccc(N(C)C)c2)cc1NC(=O)c1ccc(O)cc1 0.012
CC(C)C[C@@H](C=O)NC(=O)[C@H](CC(C)C)NC(=O)[C@H](CC(C)C)NC(=O)OCc1ccccc1 (Cbz-Leu-Leu-Leu-aldehyde) 0.195
CC(=O)c1cnc2ccc(-c3cc(Cl)c(O)c(Cl)c3)nc2c1N[C@H]1CC[C@H](CN(C)C)CC1 -0.005
O=C(O)c1ccc2c(c1)nc(Nc1cccc(Cl)c1)c1ccncc12 [silmitasertib] 0.076
O=C1NC(=NCc2cccs2)S/C1=C\c1ccc2ncccc2c1 0.087
COc1cccc2cc(-c3nc([C@H]4CC[C@H](C(=O)O)CC4)n4ncnc(N)c34)[nH]c12 0.099
CC(C)(C)Cn1c(N)nc2ccc(-c3[nH]c(C(C)(C)C)nc3-c3ccc(F)cc3)nc21 [ralimetinib] 0.074
Cc1ccc(C(=O)N(CCCN)[C@@H](c2nc3cc(Cl)ccc3c(=O)n2Cc2ccccc2)C(C)C)cc1 [ispinesib] 0.296
O=C1NC(=O)/C(=C\c2ccc3nccnc3c2)S1 0.017
Cc1ncc(-c2ccnc(Nc3ccc(S(C)(=O)=O)cc3)n2)n1C(C)C 0.015
FC(F)(F)c1ccc(/C=C/c2nc(COc3ccc(CCCCn4ccnn4)cc3)co2)cc1 [mubritinib] -0.06
NC(=O)c1cnc(N[C@@H]2CCCC[C@@H]2N)nc1Nc1cccc(-n2nccn2)c1 -0.066
Cc1ccc(NC(=O)c2ccc(CN3CC[C@H](N(C)C)C3)c(C(F)(F)F)c2)cc1Nc1nccc(-c2cncnc2)n1 [bafetinib] -0.098
CO[C@H]1C[C@@H]2CC[C@@H](C)[C@@](O)(O2)C(=O)C(=O)N2CCCC[C@H]2C(=O)O[C@H]([C@H](C)C[C@@H]2CC[C@H](n3cnnn3)[C@H](OC)C2)CC(=O)[C@H](C)/C=C(\C)[C@@H](O)[C@@H](OC)C(=O)[C@H](C)C[C@H](C)/C=C/C=C/C=C/1C [zotarolimus] 0.066
C[C@@H](N)c1ccc(C(=O)Nc2ccnc3[nH]ccc23)cc1 -0.105
Cc1nc(Nc2n[nH]c3c2CN(C(=O)N[C@H](CN(C)C)c2ccccc2)C3(C)C)c2sccc2n1 0.005
NC1(c2ccc(-c3nc4ccn5c(=O)[nH]nc5c4cc3-c3ccccc3)cc2)CCC1 -0.039
CCN(CCCOc1ccc2c(Nc3cc(CC(=O)Nc4cccc(F)c4)[nH]n3)ncnc2c1)CCOP(=O)(O)O [barasertib] -0.041
Cc1cn(-c2cc(NC(=O)c3ccc(C)c(Nc4nccc(-c5cccnc5)n4)c3)cc(C(F)(F)F)c2)cn1 [nilotinib] -0.17
COc1cc(Nc2ncc3c(n2)-c2ccc(Cl)cc2C(c2c(F)cccc2OC)=NC3)ccc1C(=O)O [alisertib] 1.14
COc1cc2ncnc(Nc3ccc(F)c(Cl)c3)c2cc1OCCCN1CCOCC1 [gefitinib] -0.192

log2 fold change, active:
C/C(=N\NC(=O)c1cccc(S(=O)(=O)N2CCOCC2)c1)c1cc(Cl)ccc1O -0.402
